{"source": "PubChem BioAssay AID504786 (Drosophila RNAi Screening Center, 2011)", "test": "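Fly genes required for HIF-dependent transcription when hypoxia is mimicked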 (primary screen)", "system": "Drosophila S2 cells with a stable HIF luciferase reporter", "reagents": "long dsRNA against Drosophila genes, about 0.2 µg dsRNA per well of a 384-well plate", "timing": "three days of knock-down, then 20 h of DFO before reading", "challenge": "desferrioxamine (DFO) at 100 µM, an iron chelator that mimics hypoxia, for 20 h", "measured": "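Firefly luciferase driven by the mouse ldh-a hypoxia-response element, measured after 20 h of 100 µM DFO; z-scores per plate, higher means more signal lost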", "scale": "z-score: higher = stronger loss of HIF reporter signal", "note": "In all, the deposit lists about 21,000 reagents; below is a random part of those with a known target gene and a result. 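Primary screen; positive scores mean lost reporter signal, so the sign may be inverted from the usual convention.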 Not all columns of the deposit are shown."}
{"gene":"CG14492","DRSC id":"DRSC06463","z-score, replicate 1":-0.3}
{"gene":"CG12699","DRSC id":"DRSC06162","z-score, replicate 1":-0.4}
{"gene":"Or59c","DRSC id":"DRSC04633","z-score, replicate 1":-0.2}
{"gene":"CG11342","DRSC id":"DRSC08175","z-score, replicate 1":-0.2}
{"gene":"CG10195","DRSC id":"DRSC02026","z-score, replicate 1":-0.3}
{"gene":"CG2983","DRSC id":"DRSC00558","z-score, replicate 1":-0.1}
{"gene":"CG14325","DRSC id":"DRSC14804","z-score, replicate 1":-0.8}
{"gene":"Megf8","DRSC id":"DRSC03058","z-score, replicate 1":-0.3}
{"gene":"NAAT1","DRSC id":"DRSC18300","z-score, replicate 1":0.1}
{"gene":"Ser6","DRSC id":"DRSC20574","z-score, replicate 1":-0.1}
{"gene":"kmr","DRSC id":"DRSC12986","z-score, replicate 1":-0.4}
{"gene":"kmr","DRSC id":"DRSC14827","z-score, replicate 1":-0.3}
{"gene":"kmr","DRSC id":"DRSC14828","z-score, replicate 1":0}
{"gene":"kmr","DRSC id":"DRSC16472","z-score, replicate 1":-0.1}
{"gene":"CG12923","DRSC id":"DRSC06237","z-score, replicate 1":-0.3}
{"gene":"CG4842","DRSC id":"DRSC10453","z-score, replicate 1":-0.1}
{"gene":"atos","DRSC id":"DRSC07318","z-score, replicate 1":0.2}
{"gene":"CG5089","DRSC id":"DRSC06914","z-score, replicate 1":-0.2}

Continued (2 carried over from the part before).
{"gene":"atos","DRSC id":"DRSC07318","z-score, replicate 1":0.2}
{"gene":"CG5089","DRSC id":"DRSC06914","z-score, replicate 1":-0.2}
{"gene":"BCL7-like","DRSC id":"DRSC17729","z-score, replicate 1":-0.1}
{"gene":"CG11263","DRSC id":"DRSC09832","z-score, replicate 1":-0.2}
{"gene":"Cyp9h1","DRSC id":"DRSC07391","z-score, replicate 1":-0.2}
{"gene":"nompB","DRSC id":"DRSC03701","z-score, replicate 1":-0.3}
{"gene":"nompB","DRSC id":"DRSC03731","z-score, replicate 1":-0.2}
{"gene":"CG34193","DRSC id":"DRSC05665","z-score, replicate 1":0}
{"gene":"CG3655","DRSC id":"DRSC17676","z-score, replicate 1":0}
{"gene":"CG3655","DRSC id":"DRSC18181","z-score, replicate 1":-0.3}
{"gene":"CG3655","DRSC id":"DRSC18477","z-score, replicate 1":-0.4}
{"gene":"Nelf-E","DRSC id":"DRSC10567","z-score, replicate 1":-0.5}
{"gene":"gce","DRSC id":"DRSC19613","z-score, replicate 1":-0.3}
{"gene":"gce","DRSC id":"DRSC19974","z-score, replicate 1":-0.1}
{"gene":"FASN1","DRSC id":"DRSC00268","z-score, replicate 1":2.6}
{"gene":"GckIII","DRSC id":"DRSC15729","z-score, replicate 1":0.1}
{"gene":"CG13293","DRSC id":"DRSC09967","z-score, replicate 1":-0.2}
{"gene":"CG12773","DRSC id":"DRSC18580","z-score, replicate 1":-0.1}
{"gene":"Tsp42Ej","DRSC id":"DRSC06113","z-score, replicate 1":-0.3}
{"gene":"CG42471","DRSC id":"DRSC01210","z-score, replicate 1":0}
{"gene":"MED22","DRSC id":"DRSC18175","z-score, replicate 1":0.1}
{"gene":"fh","DRSC id":"DRSC18430","z-score, replicate 1":0}
{"gene":"MTF-1","DRSC id":"DRSC08983","z-score, replicate 1":-0.2}
{"gene":"MTF-1","DRSC id":"DRSC11217","z-score, replicate 1":-0.3}
